Assay results reported in patent US10398142B2, “Polycationic amphiphiles as antimicrobial agents” (priority 2013, dated 2019).
Some entries share one result that the patent states for a list of compounds. For at least one compound, name, drawing or mass did not settle the structure.

Test system: Staphylococcus aureus, Enterococcus faecalis, Escherichia coli and Pseudomonas aeruginosa
Assay: MIC, summary statements over the four bacteria
Format: cell-based
Conditions: in 7 of the 8 cases tested (two compounds x four bacteria)
Description: The term “minimum inhibitory concentration (MIC)” means the lowest concentration of an antimicrobial agent that will inhibit the visible growth of a microorganism after overnight incubation. MIC values against bacteria, for example, the Gram-positive Staphylococcus aureus and Enterococcus faecalis and the Gram-negative Escherichia coli and Pseudomonas aeruginosa were determined by standard methods. See also P. A. Wayne, Methods for Dilution Antimicrobial Tests for Bacteria that Grow Aerobically; Approved Standard, Ninth Edition, 2012, CLSI Document M07-A9, Vol. 32 No. 2.
With nearly three-dozen amphiphiles varying in structure and cationic nature synthesized, minimum inhibitory concentration (MIC) values against the Gram-positive Staphylococcus aureus and Enterococcus faecalis and the Gram-negative Escherichia coli and Pseudomonas aeruginosa were determined by standard methods. […] The commercially available antibacterial agent benzalkonium chloride (benzyldimethyldodecylammonium chloride, Bn,12) was tested for comparison. The broth microdilution for determining MIC values was performed as previously reported.
MIC variation mostly hinged on the length of alkyl chain, where the dodecyl chain was generally found to be optimal. […]

Row | SMILES | MIC values [µM]
1 | CCCCCCCCCCCC[N+](C)(C)CCCCC[N+](C)(C)CCCCCCCCCCCC.[Br-].[Br-] [12,5,12] | ≤ 2
2 | CCCCCCCCCCCC[N+](C)(C)CCCCCCC[N+](C)(C)CCCCCCCCCCCC.[Br-].[Br-] [12, 7, 12] | ≤ 2
